According to article PMC7060279:
No constants are given. Whether binding was seen depends on the method and setting.

Molecular target: T1, CCN1-WT (recombinant matricellular protein CCN1) (UniProt P18406)
T1 sequence: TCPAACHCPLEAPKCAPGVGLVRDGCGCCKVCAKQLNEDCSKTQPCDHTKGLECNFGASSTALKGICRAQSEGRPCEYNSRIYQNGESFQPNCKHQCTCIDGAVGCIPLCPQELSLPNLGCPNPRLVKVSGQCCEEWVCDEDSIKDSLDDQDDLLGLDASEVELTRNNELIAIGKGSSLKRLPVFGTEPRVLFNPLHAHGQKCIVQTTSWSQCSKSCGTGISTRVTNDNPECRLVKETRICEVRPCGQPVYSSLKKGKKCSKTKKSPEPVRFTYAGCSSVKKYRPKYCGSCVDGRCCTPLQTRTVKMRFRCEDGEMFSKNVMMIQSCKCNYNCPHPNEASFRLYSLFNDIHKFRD
Test: ELISA; solid-phase-binding assay: 96-well plates coated with serially diluted CCN1 in bicarbonate/carbonate buffer (100 mM, pH 9.6) overnight at 4 °C, blocked with PVA; hTLR2, hTLR4 or hCD14 (0.2 µg per well) added; detected with anti-hTLR2, anti-hTLR4 or anti-hCD14 antibodies, HRP/TMB, A450; both …

B1: recombinant human CD14 (protein, UniProt P08571 20-345)
chain: TTPEPCELDDEDFRCVCNFSEPQPDWSEAFQCVSAVEVEIHAGGLNLEPFLKRVDADADPRQYADTVKALRVRRLTVGAAQVPAQLLVGALRVLAYSRLKELTLEDLKITGTMPPLPLEATGLALSSLRLRNVSWATGRSWLAELQQWLKPGLKVLSIAQAHSPAFSCEQVRAFPALTSLDLSDNPGLGERGLMAALCPHKFPAIQNLALRNTGMETPTGVCAALAAAGVQPHSLDLSHNSLRATVNPSAPRCMWSSALNSLNLSFAGLEQVPKGLPAKLRVLDLSCNRLNRAPQPDELPEVDNLTLDGNPFLVPGTALPHEGSMN
binding: no binding (tested: 200 ng per well)
